Data as given in PubChem BioAssay AID493014 (National Center for Advancing Translational Sciences (NCATS), 2011).
This is one part of the list. Shown are side measurements of this screen, not its main read-out; they come without a call. Most of these compounds were active or inconclusive in the main read-out, so they are no random draw. Words in brackets tell the shape of the fitted curve; partial curves, single points and poor fits give uncertain potencies.

Experiment: qHTS Assay to Find Inhibitors of Chronic Active B-Cell Receptor Signaling
Settings: ABC-DLBCL IkBa-CBG/CBR reporter, luminescence ratio (green luciferase fused to IkBa over red control in TMD8 lymphoma cells), 4 h
In short: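 Compounds up to 46 uM were incubated four hours with TMD8 cells whose green CBG68 luciferase is fused to IkappaBalpha; red CBR luminescence normalised the signal, and concentration-effect curves were fitted to fusion, red and ratio data.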

[1] = measured here: CBR red luminescence, cell number
[2] = measured here: IkBa-CBG green luminescence

Compound | AC50 [1] | AC50 [2]
C[C@@H]1CN([C@@H](C)CO)C(=O)c2cc(NC(=O)CCC(F)(F)F)ccc2O[C@H]1CN(C)S(=O)(=O)c1ccc(Cl)cc1 | 16.4 µM [rising, single point] | –
O=CN/N=C/c1c(O)ccc2ccccc12 | 2.24 µM [falling, full curve] | –
S=C(c1ccc(N2CCOCC2)cc1)N1CCOCC1 | 6.51 µM [falling, partial curve, poor fit] | –
CCOc1ccc(-n2cc(-c3ccccc3)c3c(N4CCC(C)CC4)ncnc32)cc1 | 20 µM [rising, partial curve, poor fit] | –
Cc1ccc(C2CC(c3cccc(Br)c3)Nc3nnnn32)cc1 (stereo not given) | 29.1 µM [falling, single point] | 20.6 µM [rising, partial curve, poor fit]
O=c1oc2ccc(Cl)cc2nc1/C=C(\O)c1ccco1 | 3.98 µM [rising, single point] | –
CC(OC(=O)c1ccc2c(c1)OCO2)C(=O)NC1CCCCC1C (stereo not given) | 0.82 µM [falling, partial curve, poor fit] | –
CCOc1ccc(NC(=O)C(c2ccccn2)N(C(=O)CCl)c2ccc(OC)cc2)cc1 (stereo not given) | 0.58 µM [rising, full curve] | –
O=C(CCC1COc2ccccc2O1)NCC1COc2ccccc2O1 (stereo not given) | 2.59 µM [rising, partial curve, poor fit] | –
Cc1cccc(N(CC(=O)NCc2ccco2)C(=O)CCC(=O)Nc2ccccn2)c1 | 16.4 µM [falling, single point] | –
COc1ccccc1NC(=O)c1c([N+](=O)[O-])c(C(C)(C)C)nn1C | 0.112 µM [rising, full curve, poor fit] | –
Fc1ccc(-n2nnc(-c3ccnc4ccccc34)n2)cc1 | 35.5 µM [falling, single point] | –
CC(C)NC(=O)COC(=O)c1ccc(NS(=O)(=O)c2ccc3c(c2)OCCO3)cc1 | 0.103 µM [falling, full curve, poor fit] | –
O=C(N/N=C/c1ccc2c(c1)OCO2)c1cccc2ccccc12 | 1.58 µM [falling, full curve, poor fit] | –
CCOC(=O)c1ccc(NC(=O)CN(c2ccc(C)cc2)S(=O)(=O)c2c(C)n[nH]c2C)cc1 | 20 µM [falling, single point] | –
Cc1cc(-n2c(C)cc(C(=O)CSc3nc4ccccc4c(=O)n3Cc3ccco3)c2C)no1 | 6.51 µM [rising, single point] | –
COC(=O)C(CCCCNC(=O)c1ccc([N+](=O)[O-])cc1)NC(=O)c1ccc([N+](=O)[O-])cc1 (stereo not given) | 3.26 µM [rising, single point] | –
O=C(Nc1ccc(Cl)c(Cl)c1)c1ccc(Cn2cc(Cl)cn2)cc1 | 20.6 µM [falling, single point] | 20.6 µM [rising, partial curve, poor fit]
CCC1(C)Cc2c(sc3nc(SC)nc(NCCN(C)C)c23)CO1 (stereo not given) | 6.51 µM [falling, single point] | –
Cn1nccc1C(=O)Nc1ccn(C23CC4CC(CC(C4)C2)C3)n1 | 3.26 µM [rising, partial curve, poor fit] | –

Compound | AC50 [1] | AC50 [2]
NNC(=O)CSCc1ccc(Cl)cc1Cl | 15.8 µM [falling, partial curve, poor fit] | –
COc1cc2c(cc1OC)C(COc1ccc(F)cc1)NCC2 (stereo not given) | 11.2 µM [falling, single point] | –
CCCCCn1c(N)c(-c2nc3ccccc3o2)c2c([N+](=O)[O-])nn(C)c(=O)c21 | 0.206 µM [rising, full curve, poor fit] | –
CC(=O)c1ccccc1NC(=O)C1CC(=O)N(c2ccc3c(c2)OCCO3)C1 (stereo not given) | 29.1 µM [rising, single point] | –
c1ccc(-c2noc(-c3ccco3)n2)nc1 | 29.1 µM [falling, single point] | –
COc1cccc(C2C3=C(N=c4s/c(=C\c5ccccc5O)c(=O)n42)c2ccccc2CC3)c1OC (stereo not given) | 14.1 µM [falling, partial curve, poor fit] | –
Cn1nc(C(=O)NNC(=O)c2cccc(Cl)c2)ccc1=O | 29.1 µM [falling, single point] | –
C/C(=N\Nc1nc(C)cc(-c2ccccc2)n1)c1ccccc1 | 2.24 µM [falling, full curve, poor fit] | –
CCc1nnc(NC(=O)c2ccc(-c3ccc([N+](=O)[O-])cc3Cl)o2)s1 | 2.24 µM [rising, full curve] | –
Cc1ccc(N(C(=O)c2csnn2)C(C(=O)NC2CCCCC2)c2ccccn2)cc1 (stereo not given) | 31.6 µM [falling, single point] | –
CN(C)c1cccc(C(=O)NCc2ccc(Cl)cc2)c1 | 15.8 µM [rising, single point] | –
CCn1c(C)c(CS(=O)(=O)c2ccccc2)[nH]c1=O | 35.5 µM [falling, single point] | –
COc1ccccc1-n1c(CNC(=O)c2cccs2)n[nH]c1=S | 1.12 µM [falling, partial curve, poor fit] | –
COCCNCc1nc2sc(C)c(-c3ccccc3)c2c(=O)[nH]1 | 1.12 µM [rising, full curve, poor fit] | –
COc1ccc(-c2cc(-c3c(O)c(OC)c4occc4c3OC)[nH]n2)cc1OC | 1 µM [rising, partial curve, poor fit] | –
O=C1NC(Cc2c[nH]c3ccccc23)C(=O)N1CCOc1ccccc1 (stereo not given) | 4.11 µM [rising, single point] | –
COc1cc(OC)cc(-c2cc(N)n(S(=O)(=O)c3cccc4nsnc34)n2)c1 | 8.91 µM [falling, partial curve, poor fit] | –
COc1ccc(S(=O)(=O)Nc2cc3c(C(C)=O)c(C)oc3c3ccccc23)cc1 | 2.06 µM [rising, full curve, poor fit] | 2.06 µM [falling, partial curve, poor fit]
O=C(NCc1ccco1)C1CC(=O)N(c2ccc(Cl)cc2)C1 (stereo not given) | 6.31 µM [rising, single point] | –
CC(C)=CCc1c(O)c(CC=C(C)C)c2occ(-c3ccc(O)cc3)c(=O)c2c1O | 5.62 µM [rising, single point] | –

Looked up by compound from above (two):
Compound | AC50 [1] | AC50 [2]
Cn1nc(C(=O)NNC(=O)c2cccc(Cl)c2)ccc1=O | 29.1 µM [falling, single point] | –
O=c1oc2ccc(Cl)cc2nc1/C=C(\O)c1ccco1 | 3.98 µM [rising, single point] | –

Going on with the list:

Compound | AC50 [1] | AC50 [2]
COc1ccc(NC(=O)C2C3CCC(C3)C2C(=O)O)cc1OC (stereo not given) | 11.6 µM [rising, partial curve, poor fit] | –
O=C(Cc1ccc(Br)cc1)NCc1ccccc1 | 17.8 µM [rising, partial curve, poor fit] | 17.8 µM [falling, single point]
COc1cccc(/C=N/NC(=O)CSc2cccc3cccnc23)c1 | 35.5 µM [falling, single point] | 25.1 µM [falling, single point]
Cc1cccc(CN2CCN(C(=O)CCl)CC2)c1 | 8.2 µM [falling, partial curve] | –
Cc1ncsc1CCOC(=O)c1ccc(N2CCOCC2)c([N+](=O)[O-])c1 | 2.82 µM [rising, full curve] | –
COc1ccc(CCNC(=O)c2c(O)c3ccccc3[nH]c2=O)cc1OC | 12.6 µM [falling, partial curve, poor fit] | –
O=C(C1CCC(CNc2c(N3CCCCC3)c(=O)c2=O)CC1)N1CCN(C2CCCCC2)CC1 (stereo not given) | 22.4 µM [falling, partial curve, poor fit] | –
Cc1cccc(-c2cc3nc(C)cc(NCCCn4ccnc4)n3n2)c1 | 5.8 µM [falling, full curve, poor fit] | –
COC(=O)c1cn(C(=O)c2cccc(Br)c2)c2ccccc12 | 35.5 µM [rising, single point] | –
CCOC(=O)c1c(C)nc(C)c(C(=O)OCC)c1-c1ccc(Br)cc1 | 11.6 µM [rising, partial curve, poor fit] | –
COc1ccc(-c2c(C)oc3ccc(C)cc23)cc1 | 11.2 µM [rising, partial curve, poor fit] | –
Nc1nc(CN2CCc3ccccc3C2)nc(Nc2ccccc2)n1 | – | 23.1 µM [falling, single point]
O=C(CN1CCN(Cc2ccc3c(c2)OCO3)CC1)N1CCc2[nH]c3ccc(F)cc3c2C1 | 11.6 µM [falling, partial curve, poor fit] | –
N#CCCNC(=O)Cn1c(COc2ccc(Cl)cc2)nc2ccccc21 | 20.6 µM [falling, single point] | –
Cc1cc(Br)ccc1NC(=O)CN(C)C(=O)CNC(=O)Cc1ccccc1 | 0.411 µM [falling, full curve, poor fit] | –
Cc1ccc(NC(=O)COC(=O)CN2CCCCCC2=O)c(C)c1 | 6.51 µM [rising, single point] | –
C=CS(=O)(=O)N(Cc1ccc(Cl)c(Cl)c1)C[C@@H](O)CO | 3.26 µM [falling, partial curve, poor fit] | –
CS(=O)(=O)N(CC(=O)Nc1ccc(CC#N)cc1)c1ccc(C23CC4CC(CC(C4)C2)C3)cc1 | 7.31 µM [falling, partial curve] | –
COC(=O)c1sc2nc(N3CCCCC3)c3c(c2c1N)CCCC3 | 2.06 µM [rising, partial curve, poor fit] | –
CC(C)(C)[C@@H]1COC(=O)[C@H](Cc2ccc(F)cc2)CC/C=C\C[C@@H](CC(=O)N(CCO)Cc2ccccc2)C(=O)N1 | 32.6 µM [falling, partial curve, poor fit] | –
